Source: US20180305423A1 (OKLAHOMA MEDICAL RESEARCH FOUNDATION, published 2018)
These are yes or no findings as the source states them, for the method shown. Binding seen in cells or lysates may run through a third protein. Some results given as binding are weak or reduced against the parent protein; the word gives no strength.

By UniProt entry, the sequences of proteins in these tests, tags left out. Where a name states a change or a piece, a line headed by the entry shows the natural chain unless it says otherwise. Chains listed by the source or under a name are the forms on record and can include a tag or linker.
Human VEGFR2 kinase domain (KD) with 6xHis tag at the C-terminus (P35968, form named): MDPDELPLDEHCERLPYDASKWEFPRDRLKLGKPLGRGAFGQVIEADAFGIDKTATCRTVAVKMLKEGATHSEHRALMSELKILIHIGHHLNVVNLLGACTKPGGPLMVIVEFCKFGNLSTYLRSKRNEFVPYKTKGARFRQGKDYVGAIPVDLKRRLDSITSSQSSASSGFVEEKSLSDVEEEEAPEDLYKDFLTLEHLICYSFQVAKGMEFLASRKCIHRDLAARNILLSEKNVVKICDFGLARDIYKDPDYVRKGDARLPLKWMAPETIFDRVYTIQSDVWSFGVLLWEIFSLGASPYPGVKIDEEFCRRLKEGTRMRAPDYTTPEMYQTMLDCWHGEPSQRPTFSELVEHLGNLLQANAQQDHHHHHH

Target: Human VEGFR2 kinase domain (KD) with 6xHis tag at the C-terminus (human) (UniProt P35968)
Test: peptide competition co-IP (anti-His) in 293T lysates; blocked ligand: epsin 1-HA; one peptide concentration (300 µM) [panel A]

B1: UPI peptide made of L-isomer amino acids (peptide)
peptide: SGEEELQLQLALAMSKEEMGCIKSKRKCRGDKGPDC
modifications: L-isomer amino acids
Q: Which binding does the source give for B1 here?
A: binds
